Assay results: PMC5928165
No constants are given. Whether binding was seen depends on the method and setting. In cells and extracts the contact can be indirect. Some results given as binding are weak or reduced against the parent protein; the word gives no strength.

Amino acid sequences for entries named in this document (tags omitted).
UniProt P17676: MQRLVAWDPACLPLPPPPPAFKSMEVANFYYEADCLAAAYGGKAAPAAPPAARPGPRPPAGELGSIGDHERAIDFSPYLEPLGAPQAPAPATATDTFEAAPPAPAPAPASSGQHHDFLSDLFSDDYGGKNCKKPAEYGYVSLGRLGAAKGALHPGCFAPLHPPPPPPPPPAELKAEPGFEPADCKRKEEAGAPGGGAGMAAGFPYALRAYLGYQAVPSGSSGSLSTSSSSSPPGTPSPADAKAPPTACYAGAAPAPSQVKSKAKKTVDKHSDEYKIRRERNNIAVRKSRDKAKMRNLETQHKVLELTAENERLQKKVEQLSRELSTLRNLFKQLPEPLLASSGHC
UniProt Q8TEK3: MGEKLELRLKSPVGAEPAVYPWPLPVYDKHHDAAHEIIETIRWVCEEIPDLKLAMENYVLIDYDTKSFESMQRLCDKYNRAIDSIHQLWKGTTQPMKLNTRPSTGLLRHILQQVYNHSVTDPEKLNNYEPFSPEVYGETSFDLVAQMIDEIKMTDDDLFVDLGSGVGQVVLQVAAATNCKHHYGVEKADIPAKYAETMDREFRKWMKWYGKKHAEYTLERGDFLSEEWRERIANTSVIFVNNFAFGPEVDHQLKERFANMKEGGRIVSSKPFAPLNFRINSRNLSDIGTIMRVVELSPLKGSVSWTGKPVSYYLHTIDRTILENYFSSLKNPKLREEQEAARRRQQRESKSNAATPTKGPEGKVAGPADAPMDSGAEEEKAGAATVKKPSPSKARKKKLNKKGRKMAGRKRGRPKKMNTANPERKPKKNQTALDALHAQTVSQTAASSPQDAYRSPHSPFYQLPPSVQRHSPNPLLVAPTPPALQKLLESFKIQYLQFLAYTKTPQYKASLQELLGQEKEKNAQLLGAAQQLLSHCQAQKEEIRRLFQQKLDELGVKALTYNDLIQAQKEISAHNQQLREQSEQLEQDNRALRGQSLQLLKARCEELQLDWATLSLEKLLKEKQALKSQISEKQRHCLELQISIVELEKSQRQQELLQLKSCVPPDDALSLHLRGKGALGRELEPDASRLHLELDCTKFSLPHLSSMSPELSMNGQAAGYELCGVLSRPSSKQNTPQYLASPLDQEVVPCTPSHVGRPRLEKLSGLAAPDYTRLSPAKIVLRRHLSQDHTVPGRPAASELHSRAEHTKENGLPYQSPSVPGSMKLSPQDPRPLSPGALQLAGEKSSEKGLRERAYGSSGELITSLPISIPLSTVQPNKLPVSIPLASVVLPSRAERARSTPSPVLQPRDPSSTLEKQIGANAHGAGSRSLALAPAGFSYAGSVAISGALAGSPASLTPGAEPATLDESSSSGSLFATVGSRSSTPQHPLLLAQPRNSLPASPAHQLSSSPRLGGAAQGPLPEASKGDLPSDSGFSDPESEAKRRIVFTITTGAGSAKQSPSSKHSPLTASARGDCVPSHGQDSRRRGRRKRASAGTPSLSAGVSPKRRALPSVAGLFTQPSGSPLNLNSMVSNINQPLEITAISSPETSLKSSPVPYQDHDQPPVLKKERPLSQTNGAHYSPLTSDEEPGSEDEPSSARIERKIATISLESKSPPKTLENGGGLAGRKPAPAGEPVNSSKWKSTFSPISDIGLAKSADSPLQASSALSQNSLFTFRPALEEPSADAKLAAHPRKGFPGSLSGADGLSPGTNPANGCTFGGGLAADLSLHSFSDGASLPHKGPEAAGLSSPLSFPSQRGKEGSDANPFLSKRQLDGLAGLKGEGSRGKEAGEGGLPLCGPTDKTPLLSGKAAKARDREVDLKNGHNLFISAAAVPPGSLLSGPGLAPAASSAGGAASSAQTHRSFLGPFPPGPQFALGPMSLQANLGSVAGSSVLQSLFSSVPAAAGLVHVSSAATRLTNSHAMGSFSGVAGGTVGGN

Target: CCAAT/enhancer-binding protein β (human (endogenous in C13*)) (UniProt P17676)
Assay: co-IP; lysates from C13* cells; Pierce Crosslink Immunoprecipitation Kit; IP with mouse anti-C/EBPβ and blot with rabbit anti-DOT1L, and the reciprocal; normal mouse IgG and rabbit IgG as controls

DOT1L (from UniProt Q8TEK3 1-1537) (enzyme)
binding: binds
